From PubChem BioAssay (NCATS)
The shares of active, inactive and inconclusive entries below differ from those in the screen. Where the call is inconclusive, the potency comes from a doubtful curve fit. The source made the active and inactive calls. Calls follow the shape of the dose curve; as a rule, active = well fitted curve in the direction sought with a large enough effect; inconclusive = small, poorly fitted or top-dose-only effect, or another doubt; inactive = no such curve, though single readings can be large; an effect the other way counts as inactive or inconclusive.

Tests used:
[1] = Quantitative High-Throughput drug screen in 47 multiple myeloma cell lines against the NCATS MIPE library collection: JIM3_ECACC cell viability assay (AID 1918963; also: nearly all actives have a fitted effect of over 35% in size); conditions: JIM3 myeloma viability, CellTiter-Glo ATP, 48 h; series mostly up to 45.8 µM
Procedure, shortened: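 Steps: seed 500 cells per well; pin-transfer MIPE 4.0 library; incubate 48 h at 37C, 5% CO2, humidified; add CellTiter-Glo, 5 min room temperature; read luminescence.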

[2] = Quantitative High-Throughput drug screen in 47 multiple myeloma cell lines against the NCATS MIPE library collection: JIM1_ECACC cell viability assay (AID 1918964); conditions: JIM1 myeloma viability, CellTiter-Glo ATP luminescence, 48 h; viability (% of DMSO): at 45.8 µM (top of the series)
Procedure, shortened: (§1)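 Primary qHTS used for cherry-picking: cells at 500/well, library compounds for 48 h (37C, 5% CO2), luminescent ATP assay.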

[3] = Quantitative High-Throughput drug screen in 47 multiple myeloma cell lines against the NCATS MIPE library collection: JJN3_DSMZ cell viability assay (AID 1918966; also: nearly all actives have a fitted effect of over 50% in size); conditions: JJN3 myeloma cells viability, CellTiter-Glo ATP, 48 h; series mostly up to 45.8 µM
Procedure, shortened: as §1

[4] = Quantitative High-Throughput drug screen in 47 multiple myeloma cell lines against the NCATS MIPE library collection: H1112_PLB cell viability assay (AID 1918967; also: nearly all actives have a fitted effect of over 30% in size); conditions: H1112 myeloma cells viability, ATP luminescence, 48 h; viability: at 45.8 µM (top of the series)
Procedure, shortened: as §1

[5] = Quantitative High-Throughput drug screen in 47 multiple myeloma cell lines against the NCATS MIPE library collection: KMS27_JCRB cell viability assay (AID 1918970); conditions: KMS27 myeloma cells, CellTiter-Glo ATP viability, 48 h; viability (% of DMSO): at 45.8 µM (top of the series); also: nearly all actives have a fitted effect of over 30% in size
Procedure, shortened: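 Myeloma cells (500 per well) were exposed to MIPE 4.0 compounds for 48 h at 37 °C, 5% CO2; viability was read as ATP luminescence with CellTiter-Glo, normalized to DMSO-only (100%) and media-only (0%) wells.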

[6] = Quantitative High-Throughput drug screen in 47 multiple myeloma cell lines against the NCATS MIPE library collection: KMS12BM_JCRB cell viability assay (AID 1918971); also: nearly all actives have a fitted effect of over 35% in size
Procedure, shortened: (§2)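 Approved and investigational drugs from MIPE 4.0 were added by pin tool to 500 cells per well. After 48 hours at 37C, ATP-based CellTiter-Glo luminescence indicated remaining viability.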

[7] = Quantitative High-Throughput drug screen in 47 multiple myeloma cell lines against the NCATS MIPE library collection: KMS12PE_JCRB cell viability assay (AID 1918972); conditions: KMS12PE myeloma viability, CellTiter-Glo ATP, 48 h; viability: at 45.8 µM (top of the series); also: nearly all actives have a fitted effect of over 30% in size
Procedure, shortened: (§3)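 CellTiter-Glo luminescence (ATP) after 48 h compound exposure, 37C/5% CO2; 500 cells/well; MIPE 4.0 approved/investigational drugs pinned in; DMSO = 100%, media only = 0% viability.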

[8] = Quantitative High-Throughput drug screen in 47 multiple myeloma cell lines against the NCATS MIPE library collection: KMS20_JCRB cell viability assay (AID 1918973); conditions: CellTiter-Glo ATP, 48 h; viability (% of DMSO): at 45.8 µM (top of the series); also: nearly all actives have a fitted effect of over 45% in size
Procedure, shortened: as §1

[9] = Quantitative High-Throughput drug screen in 47 multiple myeloma cell lines against the NCATS MIPE library collection: KMS26_JCRB cell viability assay (AID 1918975); conditions: KMS26 myeloma cells viability, CellTiter-Glo ATP, 48 h; viability (% of DMSO): at 45.8 µM (top of the series); also: nearly all actives have a fitted effect of over 45% in size
Procedure, shortened: as §2

[10] = Quantitative High-Throughput drug screen in 47 multiple myeloma cell lines against the NCATS MIPE library collection: MMM1_PLB cell viability assay (AID 1918976); also: nearly all actives have a fitted effect of over 35% in size
Procedure, shortened: (§4)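 500 cells/well; MIPE 4.0 drugs pin-transferred; 48 h, 37C, 5% CO2. CellTiter-Glo, 5 min RT, luminescence. Controls: DMSO 100%, media 0%.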

[11] = Quantitative High-Throughput drug screen in 47 multiple myeloma cell lines against the NCATS MIPE library collection: MOLP8_DSMZ cell viability assay (AID 1918977); conditions: MOLP8 myeloma viability, CellTiter-Glo ATP luminescence, 48 h; viability (% of control): at 45.8 µM (top of the series); also: nearly all actives have a fitted effect of over 45% in size
Procedure, shortened: as §4

[12] = Quantitative High-Throughput drug screen in 47 multiple myeloma cell lines against the NCATS MIPE library collection: NCIH929_DSMZ cell viability assay (AID 1918978); also: nearly all actives have a fitted effect of over 35% in size
Procedure, shortened: as §4

[13] = Quantitative High-Throughput drug screen in 47 multiple myeloma cell lines against the NCATS MIPE library collection: OCIMY1_PLB cell viability assay (AID 1918979); also: nearly all actives have a fitted effect of over 35% in size
Procedure, shortened: as §4

[14] = Quantitative High-Throughput drug screen in 47 multiple myeloma cell lines against the NCATS MIPE library collection: MM1S_ATCC cell viability assay (AID 1918980); also: nearly all actives have a fitted effect of over 45% in size
Procedure, shortened: as §4

[15] = Quantitative High-Throughput drug screen in 47 multiple myeloma cell lines against the NCATS MIPE library collection: MM1R_ATCC cell viability assay (AID 1918981); also: nearly all actives have a fitted effect of over 35% in size
Procedure, shortened: as §4

[16] = Quantitative High-Throughput drug screen in 47 multiple myeloma cell lines against the NCATS MIPE library collection: LP1_DSMZ cell viability assay (AID 1918982); also: nearly all actives have a fitted effect of over 35% in size
Procedure, shortened: as §4

[17] = Quantitative High-Throughput drug screen in 47 multiple myeloma cell lines against the NCATS MIPE library collection: Karpas25_ECACC cell viability assay (AID 1918968; also: nearly all actives have a fitted effect of over 35% in size); conditions: Karpas25 myeloma viability, CellTiter-Glo ATP, 48 h; viability (% of control): at 45.8 µM (top of the series)
Procedure, shortened: as §1

[18] = Quantitative High-Throughput drug screen in 47 multiple myeloma cell lines against the NCATS MIPE library collection: KMS21BM_JCRB cell viability assay (AID 1918974); conditions: ATP luminescence, 48 h; viability: at 45.8 µM (top of the series) unless noted
Procedure, shortened: as §1

[19] = Quantitative High-Throughput drug screen in 47 multiple myeloma cell lines against the NCATS MIPE library collection: KMS28PE_JCRB cell viability assay (AID 1918983); also: nearly all actives have a fitted effect of over 35% in size
Procedure, shortened: as §4

[20] = Quantitative High-Throughput drug screen in 47 multiple myeloma cell lines against the NCATS MIPE library collection: INA6_PLB cell viability assay (AID 1918965; also: nearly all actives have a fitted effect of over 55% in size); conditions: INA6 myeloma viability, CellTiter-Glo ATP luminescence, 48 h; viability (% of control): at 45.8 µM (top of the series)
Procedure, shortened: as §3

Measured: Potency
Potency is read from the fitted curve at half-maximal effect.

C=C1C(=O)OC(CCCCCCCC)C1C(=O)O (configuration not stated)
inactive: [2] | [5] | [11] | [16]
inconclusive: [1] 33.2 µM [cytotoxic, single point] | [3] 18.7 µM [cytotoxic, partial curve, poor fit] | [4] 26.4 µM [cytotoxic, single point] | [6] 0.0059 µM [rising, full curve] | [7] 0.0019 µM [rising, full curve, poor fit] | [8] 20.9 µM [cytotoxic, partial curve, poor fit] | [9] 26.4 µM [cytotoxic, single point] | [10] 0.0074 µM [rising, full curve, poor fit] | [12] 29.6 µM [cytotoxic, single point] | [13] 0.0026 µM [rising, full curve, poor fit] | [14] 33.2 µM [cytotoxic, single point] | [15] 23.5 µM [cytotoxic, single point]

NC(=O)[C@@H](CCC(F)(F)F)N(Cc1ccc(-c2ncon2)cc1F)S(=O)(=O)c1ccc(Cl)cc1
inconclusive: [1] 20.9 µM [cytotoxic, single point] | [2] 0.418 µM [cytotoxic, full curve, poor fit] | [3] 5.9 µM [cytotoxic, full curve, poor fit] | [17] 29.6 µM [cytotoxic, single point] | [7] 0.209 µM [cytotoxic, partial curve, poor fit] | [8] 13.2 µM [cytotoxic, partial curve] | [18] 23.5 µM [rising, partial curve] | [11] 26.4 µM [cytotoxic, single point] | [12] 23.5 µM [cytotoxic, single point] | [16] 20.9 µM [cytotoxic, partial curve, poor fit] | [19] 0.0743 µM [cytotoxic, full curve, poor fit]
inactive: [9]
active: [6] 18.7 µM | [10] 26.4 µM

CC1(C)Cc2c(-c3ccccc3)c(-c3ccc(Cl)cc3)c(CC(=O)O)n2C1
active: [11] 20.9 µM | [13] 23.5 µM
inconclusive: [1] 16.6 µM [cytotoxic, partial curve] | [2] 0.332 µM [cytotoxic, partial curve, poor fit] | [20] 37.2 µM [cytotoxic, single point] | [17] 33.2 µM [cytotoxic, single point] | [5] 0.469 µM [cytotoxic, partial curve, poor fit] | [7] 3.72 µM [cytotoxic, partial curve, poor fit] | [8] 18.7 µM [cytotoxic, partial curve, poor fit] | [18] 29.6 µM [rising, partial curve, poor fit] | [9] 0.0017 µM [rising, full curve, poor fit] | [12] 20.9 µM [cytotoxic, partial curve] | [15] 33.2 µM [cytotoxic, partial curve, poor fit] | [16] 23.5 µM [cytotoxic, partial curve] | [19] 26.4 µM [cytotoxic, single point]

O=C(O)c1nc(=O)[nH]c(=O)[nH]1
inactive: [20] | [17] | [7] | [9] | [14] | [15]
inconclusive: [1] 0.001 µM [cytotoxic, full curve, poor fit] | [2] 0.457 µM [cytotoxic, full curve, poor fit] | [5] 0.0006 µM | [6] 0.0323 µM [cytotoxic, full curve, poor fit] | [8] 0.0288 µM [cytotoxic, full curve, poor fit] | [18] 0.407 µM [rising, full curve, poor fit] | [10] 3.23 µM [cytotoxic, partial curve, poor fit] | [11] 18.2 µM [cytotoxic, single point] | [12] 16.2 µM [cytotoxic, single point] | [13] 14.4 µM [cytotoxic, single point] | [16] 18.2 µM [cytotoxic, single point]

COc1ccc2cccc(CCNC(C)=O)c2c1
inconclusive: [2] 0.0074 µM [cytotoxic, full curve, poor fit] | [20] 0.0033 µM [rising, full curve, poor fit] | [6] 1.48 µM [cytotoxic, full curve, poor fit] | [8] 1.18 µM [cytotoxic, full curve, poor fit] | [18] 33.2 µM [rising, partial curve] | [9] 0.0132 µM [rising, full curve, poor fit] | [10] 2.09 µM [cytotoxic, partial curve, poor fit] | [11] 3.72 µM [cytotoxic, partial curve, poor fit] | [14] 23.5 µM [cytotoxic, single point]
inactive: [1] | [17] | [15] | [16]

CNC(=O)[C@H](Cc1ccccc1)NC(=O)[C@H](CC(C)C)[C@H](CSc1cccs1)C(=O)NO
inactive: [8] | [9]
inconclusive: [1] 2.64 µM [cytotoxic, full curve] | [2] 3.32 µM [cytotoxic, full curve, poor fit] | [20] 7.43 µM [cytotoxic, full curve, poor fit] | [6] 11.8 µM [cytotoxic, single point] | [7] 0.935 µM [cytotoxic, full curve] | [18] 0.0264 µM [rising, full curve, poor fit] | [10] 0.0023 µM [rising, full curve, poor fit] | [11] 5.9 µM [cytotoxic, full curve, poor fit] | [13] 0.0332 µM [rising, full curve, poor fit] | [15] 13.2 µM [cytotoxic, partial curve, poor fit]

NC(=O)NN=Cc1ccc([N+](=O)[O-])o1
active: [18] 5.9 µM
inactive: [11] | [19]
inconclusive: [1] 37.2 µM [cytotoxic, single point] | [2] 0.0418 µM [rising, full curve, poor fit] | [20] 33.2 µM [cytotoxic, single point] | [6] 0.0418 µM [rising, full curve, poor fit] | [7] 20.9 µM [cytotoxic, partial curve] | [8] 37.2 µM [cytotoxic, single point] | [9] 18.7 µM [cytotoxic, partial curve, poor fit] | [10] 0.0053 µM [rising, full curve] | [12] 18.7 µM [cytotoxic, partial curve] | [13] 9.35 µM [rising, single point] | [14] 29.6 µM [cytotoxic, single point] | [15] 37.2 µM [cytotoxic, single point] | [16] 18.7 µM [cytotoxic, partial curve, poor fit]

2 entries drawn at random from those above:
O=C(O)c1nc(=O)[nH]c(=O)[nH]1
inactive: [20] | [17] | [7] | [9] | [14] | [15]
inconclusive: [1] 0.001 µM [cytotoxic, full curve, poor fit] | [2] 0.457 µM [cytotoxic, full curve, poor fit] | [5] 0.0006 µM | [6] 0.0323 µM [cytotoxic, full curve, poor fit] | [8] 0.0288 µM [cytotoxic, full curve, poor fit] | [18] 0.407 µM [rising, full curve, poor fit] | [10] 3.23 µM [cytotoxic, partial curve, poor fit] | [11] 18.2 µM [cytotoxic, single point] | [12] 16.2 µM [cytotoxic, single point] | [13] 14.4 µM [cytotoxic, single point] | [16] 18.2 µM [cytotoxic, single point]

CNC(=O)[C@H](Cc1ccccc1)NC(=O)[C@H](CC(C)C)[C@H](CSc1cccs1)C(=O)NO
inactive: [8] | [9]
inconclusive: [1] 2.64 µM [cytotoxic, full curve] | [2] 3.32 µM [cytotoxic, full curve, poor fit] | [20] 7.43 µM [cytotoxic, full curve, poor fit] | [6] 11.8 µM [cytotoxic, single point] | [7] 0.935 µM [cytotoxic, full curve] | [18] 0.0264 µM [rising, full curve, poor fit] | [10] 0.0023 µM [rising, full curve, poor fit] | [11] 5.9 µM [cytotoxic, full curve, poor fit] | [13] 0.0332 µM [rising, full curve, poor fit] | [15] 13.2 µM [cytotoxic, partial curve, poor fit]

Additional compounds follow:

Clc1ccc(COC(Cn2ccnc2)c2ccc(Cl)cc2Cl)cc1 (configuration not stated)
inconclusive: [1] 29.6 µM [cytotoxic, single point] | [2] 37.2 µM [cytotoxic, single point] | [3] 33.2 µM [cytotoxic, single point] | [4] 23.5 µM [cytotoxic, single point] | [17] 26.4 µM [cytotoxic, single point] | [5] 33.2 µM [cytotoxic, single point] | [6] 37.2 µM [cytotoxic, single point] | [8] 37.2 µM [cytotoxic, single point] | [18] 37.2 µM [cytotoxic, single point] | [9] 23.5 µM [cytotoxic, single point] | [10] 37.2 µM [cytotoxic, single point] | [12] 29.6 µM [cytotoxic, single point] | [13] 16.6 µM [cytotoxic, partial curve, poor fit] | [14] 37.2 µM [cytotoxic, single point] | [15] 33.2 µM [cytotoxic, single point] | [16] 20.9 µM [cytotoxic, partial curve] | [19] 33.2 µM [cytotoxic, single point]
active: [7] 23.5 µM
inactive: [11]
